Measurements: paper PMC10268400
No constants are given. Whether binding was seen depends on the method and setting. Binding seen in cells or lysates may run through a third protein. Some results given as binding are weak or reduced against the parent protein; the word gives no strength.

Amino acid sequences for entries named in this document (tags omitted).
UniProt P48681: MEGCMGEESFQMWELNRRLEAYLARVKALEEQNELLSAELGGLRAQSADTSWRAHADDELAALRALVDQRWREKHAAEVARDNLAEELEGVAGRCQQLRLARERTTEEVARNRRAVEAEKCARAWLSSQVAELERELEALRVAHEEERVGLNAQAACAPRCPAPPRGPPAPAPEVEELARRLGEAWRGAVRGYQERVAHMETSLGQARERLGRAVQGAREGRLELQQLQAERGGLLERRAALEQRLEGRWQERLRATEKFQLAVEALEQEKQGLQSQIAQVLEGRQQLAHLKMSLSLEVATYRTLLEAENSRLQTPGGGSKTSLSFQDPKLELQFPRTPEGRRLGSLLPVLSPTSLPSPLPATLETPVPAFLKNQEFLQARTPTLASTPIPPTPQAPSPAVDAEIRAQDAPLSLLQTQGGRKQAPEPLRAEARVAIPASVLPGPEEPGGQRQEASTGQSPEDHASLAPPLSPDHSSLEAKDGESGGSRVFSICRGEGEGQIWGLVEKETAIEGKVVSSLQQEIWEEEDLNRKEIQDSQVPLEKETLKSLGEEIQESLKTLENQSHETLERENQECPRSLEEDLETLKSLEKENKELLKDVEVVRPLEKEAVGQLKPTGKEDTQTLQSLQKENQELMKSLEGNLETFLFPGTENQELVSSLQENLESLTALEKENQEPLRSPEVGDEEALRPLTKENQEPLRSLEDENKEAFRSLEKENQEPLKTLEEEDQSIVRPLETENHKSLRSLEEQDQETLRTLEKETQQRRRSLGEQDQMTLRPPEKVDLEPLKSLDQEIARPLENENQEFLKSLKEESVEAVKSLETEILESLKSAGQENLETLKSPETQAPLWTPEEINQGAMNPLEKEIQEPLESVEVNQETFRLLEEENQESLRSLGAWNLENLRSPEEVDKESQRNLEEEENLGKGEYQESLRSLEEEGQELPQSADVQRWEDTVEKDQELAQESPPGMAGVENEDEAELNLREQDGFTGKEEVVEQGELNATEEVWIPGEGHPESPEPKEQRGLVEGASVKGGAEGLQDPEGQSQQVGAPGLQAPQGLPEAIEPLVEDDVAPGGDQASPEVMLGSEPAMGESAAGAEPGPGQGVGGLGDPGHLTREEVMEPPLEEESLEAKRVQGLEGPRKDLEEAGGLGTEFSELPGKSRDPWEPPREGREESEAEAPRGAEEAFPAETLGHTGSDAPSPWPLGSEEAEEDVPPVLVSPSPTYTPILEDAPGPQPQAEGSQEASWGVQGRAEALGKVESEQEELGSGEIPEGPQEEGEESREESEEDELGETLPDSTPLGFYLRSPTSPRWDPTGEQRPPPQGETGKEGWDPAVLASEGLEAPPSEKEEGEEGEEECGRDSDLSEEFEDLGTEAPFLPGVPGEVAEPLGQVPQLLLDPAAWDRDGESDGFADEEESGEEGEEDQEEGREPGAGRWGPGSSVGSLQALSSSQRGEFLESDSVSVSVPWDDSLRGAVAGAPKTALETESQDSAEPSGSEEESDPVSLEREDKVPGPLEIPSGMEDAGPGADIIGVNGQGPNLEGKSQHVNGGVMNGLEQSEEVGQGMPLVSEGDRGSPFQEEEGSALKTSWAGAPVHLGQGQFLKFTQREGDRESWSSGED
UniProt P53350: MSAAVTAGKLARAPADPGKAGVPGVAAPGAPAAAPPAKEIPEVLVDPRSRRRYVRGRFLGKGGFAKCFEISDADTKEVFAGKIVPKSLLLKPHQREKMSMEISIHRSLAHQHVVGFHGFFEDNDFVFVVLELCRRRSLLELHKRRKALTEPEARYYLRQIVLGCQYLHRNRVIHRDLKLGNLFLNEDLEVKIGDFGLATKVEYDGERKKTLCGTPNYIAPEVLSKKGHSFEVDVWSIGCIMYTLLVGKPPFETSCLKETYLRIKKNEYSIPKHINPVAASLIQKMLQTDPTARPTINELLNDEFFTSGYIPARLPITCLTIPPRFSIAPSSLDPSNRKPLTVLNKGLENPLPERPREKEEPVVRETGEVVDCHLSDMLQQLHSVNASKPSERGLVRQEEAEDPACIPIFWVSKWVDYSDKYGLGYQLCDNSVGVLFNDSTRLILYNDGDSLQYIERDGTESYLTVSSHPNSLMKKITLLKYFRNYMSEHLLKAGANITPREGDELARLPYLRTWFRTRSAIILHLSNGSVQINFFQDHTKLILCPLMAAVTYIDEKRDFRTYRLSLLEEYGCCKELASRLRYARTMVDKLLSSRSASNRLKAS

Biological target: nestin (type VI intermediate filament protein) (human (endogenous in HASM cells)) (UniProt P48681)
Assay: co-IP; extracts of HASM cells untreated or treated with 10^-4 M ACh for different time points; immunoprecipitated with nestin antibody overnight, Protein A/G Plus-Agarose 3 h; washed four times in 50 mM Tris-HCl pH 7.6, 150 mM NaCl, 0.1% Triton X-100; immunoblotted for nestin and Plk1; IgG as control

binding: binds
Substance: Polo-like kinase 1 (Plk1) (from UniProt P53350 1-603) (enzyme)
